Laboratory results: patent EP2578599A1 (LanthioPep B.V., priority 2011, dated 2013)
At least one peptide structure holds a part that was inferred or is arguable (an end, a ring closure or a residue).

Test system: RIN-5F cells
Assay: Induction of cAMP production in RIN-5F cells, competitive cAMP ELISA of medium
Format: cell-based
Conditions: for cAMP release (activity) / cAMP release with pre-incubated exendin-9 (antagonism): RIN-5F cells; for cAMP release (activity): 10 minutes at 100 nM, no antagonist; for cAMP release with pre-incubated exendin-9 (antagonism): pre-incubated Exendin-9 (10 min at 100 nM); for receptor binding: inferred from the lack of effect of the antagonist exendin-9
[1] = listed as GLP-1 analog Xaa^30-34,III
[2] = listed as GLP-1 lysinoalanine 30-34
[3] = listed as cyclic GLP-1 analog with Ser17Ala and lysinoalanine 30-34
[4] = listed as cyclic GLP-1 analog with Ser17Ala and lysinoalanine Dha^30-Lys^34
[5] = listed as cyclic GLP-1 analog with a lysinoalanine between positions Xaa^30 and Xaa^34

Structure (SMILES) | cAMP release (activity) (listed as GLP-1 analog Xaa^26-30,II) | cAMP release (activity) (listed as cyclic GLP-1 analog with Ser17Ala and lysinoalanine Lys^26-Dha^30) | cAMP release (activity) (listed as GLP-1 [lysinoalanine Xaa^30-Xaa^34]) | cAMP release (activity) [1] | cAMP release (activity) [2] | cAMP release (activity) [3] | cAMP release (activity) [4] | cAMP release (activity) [5] | cAMP release with pre-incubated exendin-9 (antagonism) [1] | cAMP release with pre-incubated exendin-9 (antagonism) [2] | cAMP release with pre-incubated exendin-9 (antagonism) [4] | cAMP release with pre-incubated exendin-9 (antagonism) [5] | receptor binding [2] | receptor binding [3]
CC[C@H](C)[C@@H]1NC(=O)[C@H](Cc2ccccc2)NC(=O)[C@H](CCC(=O)O)NC(=O)[C@@H](NC(=O)[C@H](C)NC(=O)[C@H](C)NC(=O)[C@H](CCC(N)=O)NC(=O)CNC(=O)[C@H](CCC(=O)O)NC(=O)[C@H](CC(C)C)NC(=O)[C@H](Cc2ccc(O)cc2)NC(=O)[C@H](CO)NC(=O)[C@H](C)NC(=O)[C@@H](NC(=O)[C@H](CC(=O)O)NC(=O)[C@H](CO)NC(=O)[C@@H](NC(=O)[C@H](Cc2ccccc2)NC(=O)[C@@H](NC(=O)CNC(=O)[C@H](CCC(=O)O)NC(=O)[C@H](C)NC(=O)[C@@H](N)Cc2c[nH]cn2)[C@@H](C)O)[C@@H](C)O)C(C)C)CCCCNCC(C(=O)N[C@@H](Cc2c[nH]c3ccccc23)C(=O)N[C@@H](CC(C)C)C(=O)N[C@H](C(=O)N[C@@H](CCCCN)C(=O)NCC(=O)N[C@@H](CCCNC(=N)N)C(=O)NCC(=O)O)C(C)C)NC1=O (some centres unmarked) [GLP-1M1lal] | reduced | reduced activity | – | – | – | – | – | – | – | – | – | – | – | –
CC[C@H](C)[C@H](NC(=O)[C@H](Cc1ccccc1)NC(=O)[C@H](CCC(=O)O)NC(=O)[C@H](CCCCN)NC(=O)[C@H](C)NC(=O)[C@H](C)NC(=O)[C@H](CCC(N)=O)NC(=O)CNC(=O)[C@H](CCC(=O)O)NC(=O)[C@H](CC(C)C)NC(=O)[C@H](Cc1ccc(O)cc1)NC(=O)[C@H](CO)NC(=O)[C@H](C)NC(=O)[C@@H](NC(=O)[C@H](CC(=O)O)NC(=O)[C@H](CO)NC(=O)[C@@H](NC(=O)[C@H](Cc1ccccc1)NC(=O)[C@@H](NC(=O)CNC(=O)[C@H](CCC(=O)O)NC(=O)[C@H](C)NC(=O)[C@@H](N)Cc1c[nH]cn1)[C@@H](C)O)[C@@H](C)O)C(C)C)C(=O)NC1CNCCCC[C@@H](C(=O)NCC(=O)N[C@@H](CCCNC(=N)N)C(=O)NCC(=O)O)NC(=O)[C@H](C(C)C)NC(=O)[C@H](CC(C)C)NC(=O)[C@H](Cc2c[nH]c3ccccc23)NC1=O (some centres unmarked) [GLP-1M1lalb] | – | – | even more active than wild type GLP-1 | at least equal to the activity of native GLP-1 | more active than native GLP-1 | more active than wild type GLP-1 | slightly more active than wild type GLP-1 | particularly high activity | less susceptible to inhibition | the antagonist has no effect | not antagonized | not antagonized | binds more tightly | strongly improved receptor binding
